Values from PubChem BioAssay AID504791 (Drosophila RNAi Screening Center, 2011).

Screen: 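Factors in Argonaute-based small RNA production and activity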 (primary screen)
Cells: Drosophila S2-derived reporter cells
Reagent: long dsRNA against Drosophila genes, about 150-250 ng dsRNA per well (siRNA assay); about 80-120 ng (miRNA assay)
Timing: about 5 days (siRNA assay); about 4 days (miRNA assay)
Conditions: copper sulfate induction of reporters: 25 µM (siRNA assay); 200 mM stated (miRNA assay), 1-2 days before reading
Measured: 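Dual luciferase assay: Renilla to firefly signal ratio in each well, scaled to the mean ratio of its plate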
Rule for the call: 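First-pass picks had plate-scaled ratios over 1.5 for the siRNA assay, over 1.6 for the miRNA assay, or under 0.6; two distinct dsRNAs had to score alike on retest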
The deposit covers about 23,000 reagents; below is a random part of those with a known target gene and a result. Over the whole deposit, 199 (0.86%) got an active call. 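Plate-scaled ratios behind the calls are not deposited; printed light signals are raw; many rows marked increased or decreased are still called inactive.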 Entries without a mark were called inactive. Names joined by + are all predicted targets of the reagent. Not all columns of the deposit are shown. Not stated in the record: the direction of the score.

| gene knocked down | amplicon | stable siRNA reporter change | miRNA reporter change | stable assay Renilla, run 1 (luminescence) |
| --- | --- | --- | --- | --- |
| CG13482 | DRSC10024 | – | – | 9317 |
| PTPMT1 (Protein tyrosine phosphatase, mitochondrial 1) | DRSC14235 | – | – | 5940 |
| Idua (alpha-L-iduronidase) | DRSC02941 | – | – | 5683 |
| CG9287 | DRSC03186 | – | – | 5068 |
| CG9287 | DRSC22790 | – | – | 4704 |
| Galphaq (G protein alpha subunit q) | DRSC07432 | – | – | 9539 |
| Or65a (Odorant receptor 65a) | DRSC08808 | – | – | 6158 |
| BtbVII (BTB-protein-VII) | DRSC08151 | – | – | 3623 |
| BtbVII (BTB-protein-VII) | DRSC08415 | – | – | 7983 |
| gammaTub23C (gamma-Tubulin at 23C) | DRSC00820 | – | – | 1.35e5 |
| Ccm3 (Cerebral cavernous malformation 3) | DRSC15711 | reporter ratio lowered past the hit cutoff | – | 6404 |
| bun (bunched) | DRSC01253 | – | – | 4704 |
| bun (bunched) | DRSC01255 | – | – | 5011 |
| bun (bunched) | DRSC03500 | – | – | 12792 |
| bun (bunched) | DRSC23041 | – | – | 4216 |
| CG15124 | DRSC06546 | – | – | 7368 |
| CG9215 | DRSC20171 | – | – | 5864 |
| CG14042 + SP555 | DRSC02367 | – | – | 7187 |
| CG14042 + SP555 | DRSC03428 | – | – | 6702 |
| Roc2 (Regulator of cullins 2) | DRSC07313 | – | – | 4844 |
| CG17724 | DRSC06687 | – | – | 8655 |
| CG17154 | DRSC10253 | – | – | 5287 |
| CG12679 | DRSC20493 | – | – | 6131 |
| Rad17 | DRSC16811 | – | – | 7162 |
| CG10681 | DRSC09777 | – | – | 7495 |
| CG10681 | DRSC21484 | – | – | 7862 |
| CG13204 | DRSC06328 | – | – | 6454 |
| RpS12 (Ribosomal protein S12) | DRSC11270 | – | – | 10662 |
| t-Grip128 (testis-specific gamma-tubulin ring protein 128) | DRSC07853 | – | – | 4962 |
| CG14971 | DRSC08430 | – | – | 6874 |
| Usp32 (Ubiquitin specific protease 32) | DRSC10979 | – | – | 6610 |
| CSN1a (COP9 signalosome subunit 1a) | DRSC01951 | – | – | 7326 |
| CG17271 | DRSC15210 | – | – | 8458 |
| CG17271 | DRSC22629 | – | – | 2071 |
| CG17271 | DRSC22982 | – | – | 5104 |
| CG11381 | DRSC17780 | – | – | 5603 |
| CG42537 | DRSC12519 | – | – | 5862 |
| eIF2Bbeta (eukaryotic translation initiation factor 2B subunit beta) | DRSC18465 | – | – | 6811 |
| RpL35 (Ribosomal protein L35) | DRSC18347 | – | – | 5250 |
| Tdh (L-threonine dehydrogenase) | DRSC11788 | reporter ratio lowered past the hit cutoff | – | 4810 |
| DnaJ-H (DnaJ homolog) | DRSC03273 | – | – | 7691 |
| Gos28 (Golgi SNARE, 28 kDa) | DRSC16292 | – | – | 7384 |
| Gos28 (Golgi SNARE, 28 kDa) | DRSC22859 | – | – | 5367 |
| CG6576 | DRSC10663 | – | – | 6234 |
| Agpat3 (1-Acylglycerol-3-phosphate O-acyltransferase 3) | DRSC10445 | – | – | 7939 |
| CG15814 | DRSC19730 | – | – | 9539 |
| cav (caravaggio) | DRSC15995 | – | – | 9522 |
| CG7798 | DRSC07047 | – | – | 6555 |
| AOX4 (Aldehyde oxidase 4) | DRSC15337 | – | – | 7988 |
| CG30172 | DRSC21519 | – | – | 9975 |
| eIF5B (eukaryotic translation initiation factor 5B) | DRSC08429 | – | – | 4463 |
| eIF5B (eukaryotic translation initiation factor 5B) | DRSC08710 | – | reporter ratio lowered past the hit cutoff | 5767 |
| Pdha (Pyruvate dehydrogenase E1 alpha subunit) | DRSC18413 | – | – | 5686 |
| Ptp69D (Protein tyrosine phosphatase 69D) | DRSC11258 | – | – | 8584 |
| CG10584 | DRSC11624 | – | – | 7472 |
| Cont (Contactin) | DRSC12149 | – | – | 9029 |
| CG33128 | DRSC00294 | – | – | 5643 |
| CG30447 | DRSC05820 | – | – | 6818 |
| Fnta (Farnesyl transferase alpha subunit) | DRSC00557 | – | – | 12386 |
| CG11695 | DRSC19416 | – | – | 5639 |
| yellow-g2 | DRSC08338 | – | – | 6507 |
| Rpn12R (Regulatory particle non-ATPase 12-related) | DRSC09842 | – | – | 7563 |
| S-Lap1 (Sperm-Leucylaminopeptidase 1) | DRSC10627 | – | – | 7044 |
| CG11241 | DRSC11641 | – | – | 4363 |
| CG11241 | DRSC22165 | – | – | 8698 |
| Klp54D (Kinesin-like protein at 54D) | DRSC07450 | – | – | 6135 |
| CG7135 | DRSC20026 | – | – | 6567 |
| Smu1 (Smu1 spliceosomal factor) | DRSC15803 | – | – | 9904 |
| Lrt (Leucine-rich tendon-specific protein) | DRSC06045 | – | – | 5523 |
| CCDC53 (Coiled-coil domain containing 53) | DRSC03056 | – | – | 7640 |
| GstE8 (Glutathione S transferase E8) | DRSC06678 | – | – | 10730 |
| CG5704 | DRSC08572 | – | – | 9087 |
| Prosbeta7 (Proteasome beta7 subunit) | DRSC12186 | reporter ratio raised past the hit cutoff (active) | reporter ratio raised past the hit cutoff | 9558 |
| CG14007 | DRSC02339 | – | – | 7899 |
| CG15353 | DRSC00383 | – | – | 4400 |
| CG9123 | DRSC20156 | – | – | 6558 |
| CG13151 | DRSC06276 | – | – | 5748 |
| CG4375 | DRSC00653 | – | – | 8631 |
| CG31200 | DRSC15285 | – | – | 6750 |
| gskt (gasket) | DRSC14056 | – | – | 9650 |
| Rsbp15 (Radial spoke binding protein 15) | DRSC14176 | – | – | 6410 |
| Acn (Acinus) | DRSC02062 | – | – | 26808 |
| Klc (Kinesin light chain) | DRSC11203 | – | – | 8011 |

Ordered by “stable assay Renilla, run 1 (luminescence)” (lowest first): some entries from above.
| gene knocked down | amplicon | stable siRNA reporter change | miRNA reporter change | stable assay Renilla, run 1 (luminescence) |
| --- | --- | --- | --- | --- |
| CG15353 | DRSC00383 | – | – | 4400 |
| Lrt (Leucine-rich tendon-specific protein) | DRSC06045 | – | – | 5523 |
| CCDC53 (Coiled-coil domain containing 53) | DRSC03056 | – | – | 7640 |
| CG14007 | DRSC02339 | – | – | 7899 |
| CG5704 | DRSC08572 | – | – | 9087 |
| Prosbeta7 (Proteasome beta7 subunit) | DRSC12186 | reporter ratio raised past the hit cutoff (active) | reporter ratio raised past the hit cutoff | 9558 |
| GstE8 (Glutathione S transferase E8) | DRSC06678 | – | – | 10730 |
